The numbers were not newly measured in patent publication US20030235609A1, “Use of cholinesterase antagonists to treat insulin resistance” (priority 2002, published 2003), which cites them from elsewhere.

Structures are written as SMILES.

Series [1] concerns glucose uptake across the hindlimbs. Conditions: cats, following atropine.
Series [2] deals with hepatic uptake of glucose. Conditions: with atropine; reduced from 80%.
Series [3] relates to absorption of orally administered glucose. Conditions: conscious dogs.

`CN1[C@@H]2CC[C@H]1C[C@@H](OC(=O)C(CO)c1ccccc1)C2` (stereo partly drawn) [atropine]: the “Glucose uptake across the hindlimbs (skeletal muscle) after bolus insulin” value in series [1] is given as “decreased”. Further, in series [2], the “Proportion of glucose sequestered by the liver following oral administration” value is 44%. Further, the “Absorption of orally administered glucose” value in series [3] is “suppressed and delayed”.
